No constants are given. Whether binding was seen depends on the method and setting. Binding seen in cells or lysates may run through a third protein. Some entries that bind do so weakly or less than the wild type.

The target in this test is T1, serpinE2 (serine (or cysteine) peptidase inhibitor, clade E, member 2) (mouse (endogenous in neonatal mouse cardiac fibroblasts)) (UniProt Q07235).
T1 sequence: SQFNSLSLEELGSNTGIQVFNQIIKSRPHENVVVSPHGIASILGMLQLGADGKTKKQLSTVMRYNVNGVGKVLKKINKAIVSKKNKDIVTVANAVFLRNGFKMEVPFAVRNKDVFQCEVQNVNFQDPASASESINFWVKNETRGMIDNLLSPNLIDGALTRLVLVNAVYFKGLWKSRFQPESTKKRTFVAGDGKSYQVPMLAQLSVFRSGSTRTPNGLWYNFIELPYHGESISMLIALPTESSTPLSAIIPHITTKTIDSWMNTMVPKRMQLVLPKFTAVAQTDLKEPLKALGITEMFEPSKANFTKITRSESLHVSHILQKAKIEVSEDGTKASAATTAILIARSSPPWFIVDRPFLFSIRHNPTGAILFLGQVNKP
Briefly: co-IP; cardiac fibroblasts lysed in IP lysis buffer; complex captured with anti-serpinE2 antibody and Protein A/G PLUS-Agarose, washed with PBS; uPAR and LRP1 detected by immunoblotting; IgG as negative control. (A western blot detects proteins with antibodies after separation by electrophoresis.)

B1: urokinase plasminogen activator receptor (uPAR) (receptor, UniProt P35456 24-298)
chain: LQCMQCESNQSCLVEECALGQDLCRTTVLREWQDDRELEVVTRGCAHSEKTNRTMSYRMGSMIISLTETVCATNLCNRPRPGARGRAFPQGRYLECASCTSLDQSCERGREQSLQCRYPTEHCIEVVTLQSTERSLKDEDYTRGCGSLPGCPGTAGFHSNQTFHFLKCCNYTHCNGGPVLDLQSFPPNGFQCYSCEGNNTLGCSSEEASLINCRGPMNQCLVATGLDVLGNRSYTVRGCATASWCQGSHVADSFPTHLNVSVSCCHGSGCNSPTG
For B1, the binding entry is on record as “binds”.

The values are drawn from article PMC9682543.
